The supplement of paper PMC3682954
Structures can show the parent of a compound that is named as a salt. ± gives the standard deviation of the averaged measurements. The list shows a part of the results. Many values rest on one well or one pass, so single values are uncertain.

System: RAW 264.7
Experiment: HMGB1-induced TNF-alpha production relative to HMGB1-stimulated control; higher = more TNF-alpha secretion (less inhibition)
Conditions: stimulus: HMGB1 5 ug/ml, 18 h
[1] = compound concentration: 1 ug/ml

| SMILES | HMGB1-induced TNF-alpha production (compound concentration: 3 uM) | HMGB1-induced TNF-alpha production [1] |
| --- | --- | --- |
| CC(N)Cc1c[nH]c2ccc(OCc3cccs3)cc12 (stereo not given) | 98.4% |  |
| CCCC(C)C1(CC)C(=O)NC(=S)NC1=O (stereo not given) | 96.5% |  |
| COc1cc([C@@H]2c3cc4c(cc3[C@H](O)[C@H]3COC(=O)[C@@H]23)OCO4)cc(OC)c1OC | 119% |  |
| CN1CCC(c2ccc(F)cc2)C(COc2ccc3c(c2)OCO3)C1 (stereo not given) | 108% |  |
| CCN[C@@H](C)Cc1cccc(C(F)(F)F)c1 [Dexfenfluramine hydrochloride] | 103% |  |
| Oc1noc2c1CCNC2 | 80.5% |  |
| C[C@]12CCC(=O)C[C@@H]1CC[C@@H]1[C@@H]2CC[C@@]2(C)[C@H]1CC[C@]2(C)O [Mestanolone] | 114% |  |
| NC(=O)CN1CC(O)CC1=O (stereo not given) [Oxiracetam] | 97.7% |  |
| COc1ccc(CNC(=O)/C=C/c2ccc3[nH]cc(CCN(C)C)c3c2)cc1 | 84.3% |  |
| C[CH2][Hg][S]c1ccccc1C(=O)[O-].[Na+] [Thimerosal] | 31.7% |  |
| C[CH2][Hg][S]c1ccccc1C(=O)[O-].[Na+] | 1.85 ± 5.8% |  |
| C[N+](C)(C)CC#CCN1CCCC1=O [Oxotremorine methiodide] | 101% |  |
| NC(=O)c1ccc(OCC(O)CN2CC=C(c3ccc(F)cc3)CC2)cc1 (stereo not given) | 103% |  |
| CC(C)=CC1C(C(=O)OCc2cccc(Oc3ccccc3)c2)C1(C)C (stereo not given) | 73.9% |  |
| Cc1ncc2n1-c1ccc(Cl)cc1C(c1ccccc1F)=NC2 | 101% |  |
| CN(C)Cc1c[nH]c2ccccc12 [Gramine] |  | 62.3% |
| C[N+]1(C)CCOC(O)(c2ccc(-c3ccc(C4(O)C[N+](C)(C)CCO4)cc3)cc2)C1 (stereo not given) [Hemicholinium bromide] | 86.5% |  |
| C[N+]1(C)CCOC(O)(c2ccc(-c3ccc(C4(O)C[N+](C)(C)CCO4)cc3)cc2)C1 (stereo not given) [Hemicholinium-3] | 75% |  |
| Nc1ccncc1 | 113% |  |
| Nc1ccncc1 [4-Aminopyridine] | 87.3% |  |
| C[C@]12CCC(=O)C=C1CC[C@@H]1[C@@H]2C(=O)C[C@]2(C)C(=O)CC[C@@H]12 [Adrenosterone] | 115% |  |
| COc1cc2c(cc1OC)-c1c(OC)c(OC)c(CO)c3c1C(C2)N(C)CC3 (stereo not given) |  | 67.7% |
| CC[C@H](C)[C@H]1O[C@]2(C=C[C@@H]1C)C[C@@H]1C[C@@H](C/C=C(\C)[C@@H](O[C@H]3C[C@H](OC)[C@@H](O[C@H]4C[C@H](OC)[C@@H](O)[C@H](C)O4)[C@H](C)O3)[C@@H](C)/C=C/C=C3\CO[C@@H]4[C@H](O)C(C)=C[C@@H](C(=O)O1)[C@]34O)O2.CO[C@H]1C[C@H](O[C@H]2[C@H](C)O[C@@H](O[C@@H]3/C(C)=C/C[C@@H]4C[C@@H](C[C@]5(C=C[C@H](C)[C@@H](C(C)C)O5)O4)OC(=O)[C@@H]4C=C(C)[C@@H](O)[C@H]5OC/C(=C\C=C\[C@@H]3C)[C@]54O)C[C@@H]2OC)O[C@@H](C)[C@@H]1O [Abamectin] | 89.9% |  |

Some values from the list:
HMGB1-induced TNF-alpha production (compound concentration: 3 uM) with Cc1ncc2n1-c1ccc(Cl)cc1C(c1ccccc1F)=NC2 reads 101%
HMGB1-induced TNF-alpha production (compound concentration: 3 uM) with COc1cc([C@@H]2c3cc4c(cc3[C@H](O)[C@H]3COC(=O)[C@@H]23)OCO4)cc(OC)c1OC reads 119%

Going on with the list:

| SMILES | HMGB1-induced TNF-alpha production (compound concentration: 3 uM) | HMGB1-induced TNF-alpha production [1] |
| --- | --- | --- |
| CC[C@H](C)[C@H]1O[C@]2(C=C[C@@H]1C)C[C@@H]1C[C@@H](C/C=C(\C)[C@@H](O[C@H]3C[C@H](OC)[C@@H](O[C@H]4C[C@H](OC)[C@@H](O)[C@H](C)O4)[C@H](C)O3)[C@@H](C)/C=C/C=C3\CO[C@@H]4[C@H](O)C(C)=C[C@@H](C(=O)O1)[C@]34O)O2.CO[C@H]1C[C@H](O[C@H]2[C@H](C)O[C@@H](O[C@@H]3/C(C)=C/C[C@@H]4C[C@@H](C[C@]5(C=C[C@H](C)[C@@H](C(C)C)O5)O4)OC(=O)[C@@H]4C=C(C)[C@@H](O)[C@H]5OC/C(=C\C=C\[C@@H]3C)[C@]54O)C[C@@H]2OC)O[C@@H](C)[C@@H]1O | 84.7% |  |
| CO[C@H]1CC=C2CCN3CCC4=C(CC(=O)OC4)[C@]23C1 [Dihydro-beta-erythroidine hydrobromide] | 97.9% |  |
| Cc1[nH]c2ccc(O)cc2c1CCN [2-Methyl-5-hydroxytryptamine maleate] | 122% |  |
| C=CCN1CCc2cccc3c2[C@H]1Cc1ccc(O)c(O)c1-3 [R(-)-N-Allylnorapomorphine hydrobromide] | 96.2% |  |
| COc1ccc(C(=O)N2CCCC2=O)cc1 [Aniracetam] | 107 ± 15% |  |
| COc1ccc(C(=O)N2CCCC2=O)cc1 | 89.9% |  |
| CCCCCCCCCCCCCC(=O)O[C@@H]1[C@@H](C)[C@@]2(O)[C@@H](C=C(CO)C[C@]3(O)C(=O)C(C)=C[C@@H]23)[C@@H]2C(C)(C)[C@]12OC(C)=O | 89.3% |  |
| CCCCCCCCCCCCCC(=O)O[C@@H]1[C@@H](C)[C@@]2(O)[C@@H](C=C(CO)C[C@]3(O)C(=O)C(C)=C[C@@H]23)[C@@H]2C(C)(C)[C@]12OC(C)=O [Phorbol 12-myristate 13-acetate] | 119% |  |
| O=C1/C(=C/c2ccccc2)C[C@@]2(O)[C@H]3Cc4ccc(O)c5c4[C@@]2(CCN3CC2CC2)[C@H]1O5 [BNTX maleate salt hydrate] | 49.6% |  |
| CC[C@@]1(O)C[C@H](O)c2c(cc3c(c2O)C(=O)c2c(O)ccc(O)c2C3=O)[C@H]1C(=O)OC | 70.8% |  |
| O=C(O)CCCc1ccc(N(CCCl)CCCl)cc1 | 97.4 ± 5.9% |  |
| O=C(O)CCCc1ccc(N(CCCl)CCCl)cc1 [Chlorambucil] | 103 ± 21% |  |
| CC[C@@H](C(N)=O)N1CCCC1=O [Levetiracetam] | 105 ± 20% |  |
| CC[C@@H](C(N)=O)N1CCCC1=O | 91.9% |  |
| NCC(O)c1cc(O)c(O)cc1F (stereo not given) [6-Fluoronorepinephrine hydrochloride] | 80.8% |  |
| CC(C)(C)[C@]1(O)CC2OC(=O)CC23C(=O)OC2OC(=O)[C@H](O)C231 (single isomer, unassigned; (-)) [(-)-Bilobalide] |  | 75.9% |
| CCS(=O)(=O)Nc1cccc(C(=C2CCCCC2)c2cnc[nH]2)c1 | 88.6% |  |
| CCCN1CCc2cccc3c2[C@H]1Cc1ccc(O)c(O)c1-3 [R(-)-Propylnorapomorphine hydrochloride] | 74.1% |  |
| Cc1nccc2c1[nH]c1ccccc12 [Harman] |  | 72.3% |
| Cc1nccc2c1[nH]c1ccccc12 [Harmane hydrochloride] | 108% |  |
| C[C@H]1O[C@@H](C[N+](C)(C)C)CS1 | 87.1% |  |
| CNc1ccc2oc(C[C@H]3O[C@@]4(CC[C@H]3C)O[C@H]([C@H](C)C(=O)c3ccc[nH]3)[C@H](C)C[C@H]4C)nc2c1C(=O)O [Calcimycin] | 327% |  |
